This is a selection; strong and weak results do not stand in their true shares. Results filed as inconclusive are left out. Active and inactive are the calls of the source. The call rests on the fitted dose curve; in most records, active means well fitted inhibition curve with a large enough effect; inconclusive means small, poorly fitted or top-dose-only effect; inactive means no such curve, though single readings can be large or run the other way.
Potency means the concentration at half of the fitted maximal effect.

This test is described as follows: qHTS for Inhibitors of TGF-b. Further: nearly all actives have a fitted effect of over 65% in size. The settings on record: HepG2 CAGA-GFP TGF-b/SMAD3 reporter, GFP fluorescence, 18 h; TGF-beta stimulated, 500 pg/mL final. An excerpt:
TGF-b is a main component in the TGF-b signaling pathway which plays diverse roles in cellular and development pathways. TGF-b is the mediated by the transcription factors Smads. Although the Smad-dependent pathway is the primary canonical TGF-b signaling node, TGF-b1 can also activate alternative signaling pathways, including those involving MAPK (ERK, JNK and p38). This interaction may mediate or enhance Smad-dependent responses, or can exert Smad-independent effects. The complexity of this signaling cascade allows the TGF-b superfamily to perform unique, overlapping or redundant functions. […] We aim to identify Smad3-small molecule antagonists using a quantitative high throughput screening (qHTS) approach. […]
Suspensions of trypsinized HEPG2 CAGA-GFP cells were dispensed into white, tissue culture-treated, solid 1536-well plates at 5uL/well (1000 cells/well final concentration) in DMEM medium supplemented with 1% FBS. […] The plates were measured on an Acumen eX3 Explorer plate reader for GFP fluorescence (ex488/em500-530). GFP values were calculated by determining the mean GFP fluorescence of individual cells, and compiling these values for each well to determine a total well GFP signal. The %Activity was determined from the corrected fluorescence values. […]
Concentration-response curves were fitted to the signals arising from the resulting fluorescence. […]
A general note: Quantitative high-throughput screening tests each substance at several concentrations.
For the compound `COc1c(O)cc2c(c1OC)-c1ccc(SC)c(=O)cc1C(NC(C)=O)CC2` (stereo unspecified), the Potency was active: 0.199 µM.

The record behind these values is PubChem BioAssay AID588855 (National Center for Advancing Translational Sciences (NCATS), 2011).
